This test deals with L1210 leukemia ip in BDF1 mice, survival T/C. Nature of the test: NCI In Vivo Anticancer Drug Screen. Data for tumor model L1210 Leukemia (intraperitoneal) in B6D2F1 (BDF1) mice. The following applies: higher T/C = longer survival.
Where [1] appears, read: T/C endpoint: mean survival time, dose: 400.0 mg/kg/injection, schedule: Q04DX002 (ip), vehicle: Klucel (hydroxypropylcellulose) (HPC).

The list does not hold the whole screen: it gathers tests that were run many times, whatever their T/C, doses with no T/C, and many T/C values between a quarter and a half above the control. Further doses and runs are listed elsewhere. T/C gives the treated animals as a percentage of the vehicle group. Some entries give survivors of the animals treated and no T/C: the source holds a T/C of zero for them, seemingly a mark for toxic or unscored doses. Some survivor counts are full or nearly so, which does not show that the dose was tolerated: survival well below the control is almost never listed, so the zero probably covers shortened survival too. Survivors were counted at the toxicity check, usually on the fifth day, unless a day is given; later deaths do not show. Schedule codes are those of the source, taken here to give the interval after Q, in days (D) or hours (H), and the number of doses after X. Some schedule codes hold Z or #, which are not explained here. Some entries hold several experiments; their values stand side by side, smallest first. Where survival is the endpoint, the PubChem record calls one and a half times the control and up active, and a quarter to a half above the control has no call in these data; cut-offs in other NCI protocols can differ.

As for `CSCS(=O)C[C@H](CO)NC(=O)/C=C/c1c(C)[nH]c(=O)[nH]c1=O` (some centres not stated), the survivor count is reported as 6 of 6 (T/C endpoint: mean survival time, dose: 1.0 mg/kg/injection, schedule: Q01DX Z (ip), vehicle: carboxymethylcellulose (CMC)); 6 of 6 (T/C endpoint: mean survival time, dose: 1.25 mg/kg/injection, schedule: Q01DX Z (ip), vehicle: carboxymethylcellulose (CMC)); 6 of 6 (T/C endpoint: mean survival time, dose: 1.5 mg/kg/injection, schedule: Q01DX Z (ip), vehicle: carboxymethylcellulose (CMC)); 0 of 3 (T/C endpoint: mean survival time, dose: 6.25 mg/kg/injection, schedule: Q04DX002 (ip), vehicle: Klucel (hydroxypropylcellulose) (HPC)); 1 of 3 (T/C endpoint: mean survival time, dose: 12.5 mg/kg/injection, schedule: Q04DX002 (ip), vehicle: Klucel (hydroxypropylcellulose) (HPC)); 1 of 3 (T/C endpoint: mean survival time, dose: 25.0 mg/kg/injection, schedule: Q04DX002 (ip), vehicle: Klucel (hydroxypropylcellulose) (HPC)). Also, the survivor count is 0 of 3 (T/C endpoint: mean survival time, dose: 50.0 mg/kg/injection, schedule: Q04DX002 (ip), vehicle: Klucel (hydroxypropylcellulose) (HPC)); 0 of 3 (T/C endpoint: mean survival time, dose: 100.0 mg/kg/injection, schedule: Q04DX002 (ip), vehicle: Klucel (hydroxypropylcellulose) (HPC)); 0 of 3 (T/C endpoint: mean survival time, dose: 200.0 mg/kg/injection, schedule: Q04DX002 (ip), vehicle: Klucel (hydroxypropylcellulose) (HPC)); 0 of 3 under setting [1]; 1 of 8 (T/C endpoint: median survival time, dose: 8.0 mg/kg/injection, schedule: Q04DX003 (ip), vehicle: saline); 0 of 8 (T/C endpoint: median survival time, dose: 16.0 mg/kg/injection, schedule: Q04DX003 (ip), vehicle: saline). The T/C is 130 % of control (T/C endpoint: mean survival time, dose: 1.56 mg/kg/injection, schedule: Q04DX002 (ip), vehicle: Klucel (hydroxypropylcellulose) (HPC)); 130 % of control (T/C endpoint: mean survival time, dose: 3.13 mg/kg/injection, schedule: Q04DX002 (ip), vehicle: Klucel (hydroxypropylcellulose) (HPC)); 125 % of control (T/C endpoint: median survival time, dose: 1.0 mg/kg/injection, schedule: Q04DX003 (ip), vehicle: saline); 128 % of control (T/C endpoint: median survival time, dose: 2.0 mg/kg/injection, schedule: Q04DX003 (ip), vehicle: saline).

With `O=C(O)Cc1cccc(S(=O)(=O)F)c1`, the survivor count was 6 of 6 (T/C endpoint: mean survival time, dose: 200.0 mg/kg/injection, schedule: Q04DX003 (ip), vehicle: saline with Tween-80); 1 of 6 (T/C endpoint: mean survival time, dose: 400.0 mg/kg/injection, schedule: Q04DX002 (ip), vehicle: saline with Tween-80); 0 of 6 (T/C endpoint: mean survival time, dose: 400.0 mg/kg/injection, schedule: Q04DX003 (ip), vehicle: saline with Tween-80).

Take `O=C(OCC1CC=CC1)C1CC=CC1`: the survivor count runs as follows: (T/C endpoint: mean survival time, dose: 50.0 mg/kg/injection, schedule: Q01DX009 (ip), vehicle: saline with Tween-80) 6 of 6; (T/C endpoint: mean survival time, dose: 100.0 mg/kg/injection, schedule: Q01DX009 (ip), vehicle: saline with Tween-80) 5 of 6; (T/C endpoint: mean survival time, dose: 200.0 mg/kg/injection, schedule: Q01DX009 (ip), vehicle: saline with Tween-80) 1 of 6; (T/C endpoint: mean survival time, dose: 400.0 mg/kg/injection, schedule: Q04DX003 (ip), vehicle: saline sonified) 0 of 6.

Take `c1ccc2cc3c(ccc4cccc[n+]43)cc2c1`: the survivor count by setting is: (T/C endpoint: mean survival time, dose: 100.0 mg/kg/injection, schedule: Q01DX001 (ip), vehicle: saline) 0 of 6; (T/C endpoint: mean survival time, dose: 200.0 mg/kg/injection, schedule: Q01DX001 (ip), vehicle: saline) 0 of 6; (T/C endpoint: mean survival time, dose: 400.0 mg/kg/injection, schedule: Q01DX001 (ip), vehicle: saline) 0 of 6.

Take `Nc1ccccc1SSc1ccccc1N`: the survivor count under setting [1] is 1 of 3.

Turning to `c1ccc2c(c1)Cc1ccccc1[As]2c1cccc2ccccc12`, the survivor count is, setting by setting: (T/C endpoint: mean survival time, dose: 222.0 mg/kg/injection, schedule: Q01DX Z (ip), vehicle: methylcellulose (MC)) 6 of 6; (T/C endpoint: mean survival time, dose: 333.0 mg/kg/injection, schedule: Q01DX Z (ip), vehicle: methylcellulose (MC)) 6 of 6; (T/C endpoint: mean survival time, dose: 500.0 mg/kg/injection, schedule: Q01DX Z (ip), vehicle: methylcellulose (MC)) 6 of 6.

Turning to `CCCCCCCOC(C[N+](=O)[O-])C(Cl)(Cl)Cl` (configuration not stated), the survivor count is 2 of 6 (T/C endpoint: mean survival time, dose: 100.0 mg/kg/injection, schedule: Q01DX009 (ip), vehicle: acetone); 3 of 6 (T/C endpoint: mean survival time, dose: 200.0 mg/kg/injection, schedule: Q04DX003 (ip), vehicle: acetone); 0 of 6 (T/C endpoint: mean survival time, dose: 400.0 mg/kg/injection, schedule: Q04DX003 (ip), vehicle: acetone).

On to `CCC[CH2][Sn]([CH2]CCC)([CH2]CCC)[N]=C=S`, for which the survivor count was 1 of 3 (T/C endpoint: mean survival time, dose: 1.56 mg/kg/injection, schedule: Q01DX001 (ip), vehicle: saline with Tween-80); 0 of 3 (T/C endpoint: mean survival time, dose: 3.12 mg/kg/injection, schedule: Q01DX001 (ip), vehicle: saline with Tween-80); 0 of 3 and 3 of 6 (T/C endpoint: mean survival time, dose: 6.25 mg/kg/injection, schedule: Q01DX001 (ip), vehicle: saline with Tween-80); 2 of 6 (T/C endpoint: mean survival time, dose: 12.5 mg/kg/injection, schedule: Q01DX001 (ip), vehicle: saline with Tween-80); 0 of 6 (T/C endpoint: mean survival time, dose: 25.0 mg/kg/injection, schedule: Q01DX001 (ip), vehicle: saline with Tween-80); 0 of 6 (T/C endpoint: mean survival time, dose: 50.0 mg/kg/injection, schedule: Q01DX001 (ip), vehicle: saline with Tween-80). Besides, the survivor count reads like this: (T/C endpoint: mean survival time, dose: 100.0 mg/kg/injection, schedule: Q01DX001 (ip), vehicle: saline with Tween-80) 0 of 6 and 1 of 6; (T/C endpoint: mean survival time, dose: 200.0 mg/kg/injection, schedule: Q01DX001 (ip), vehicle: saline with Tween-80) 0 of 6; (T/C endpoint: mean survival time, dose: 400.0 mg/kg/injection, schedule: Q01DX001 (ip), vehicle: saline with Tween-80) 0 of 6.

(Values after PubChem BioAssay AID248 (DTP/NCI, 2004).)
